{"source": "PubChem BioAssay AID1259405 (NCATS, 2018)", "aim": "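Mouse-designed siRNAs used to find CHO productivity engineering targets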 (primary screen)", "system": "Chinese hamster CHO-K1 ovary cells with stable secreted eGFP expression", "knock-down reagent": "single siRNA against mouse genes, 0.8 pmol siRNA per well (2 µl of 400 nM stock)", "time to read-out": "3 days", "read-out": "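Per-well intracellular GFP measured by laser scanning cytometry, plus viability from ATP luminescence, each relative to plate median of non-targeting control wells, in %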", "direction": "GFP, % of control: higher = more GFP per well, higher productivity; viability (ATP), % of control: higher = more viable cells (more ATP)", "rule for the call": "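Called active when intracellular GFP, relative to negative control, is at or above 120%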", "note": "Shown is a random part of about 50,000 reagents. In the full data, about 4,000 (8%) were called active. 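Mouse siRNA library applied to hamster cells; one well for each siRNA.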 Entries without a mark were called inactive. The numbers tell different reagents against one gene apart. No sequences are given here."}
{"Gene": "4932414N04Rik (GeneID 75721)", "reagent no.": 1, "GFP, % of control": 86.5, "viability (ATP), % of control": 65.3}
{"Gene": "4932414N04Rik (GeneID 75721)", "reagent no.": 2, "GFP, % of control": 92.2, "viability (ATP), % of control": 53.7}
{"Gene": "4932414N04Rik (GeneID 75721)", "reagent no.": 3, "GFP, % of control": 89.6, "viability (ATP), % of control": 83.5}
{"Gene": "Adad1 (GeneID 21744)", "reagent no.": 1, "GFP, % of control": 89.6, "viability (ATP), % of control": 89}
{"Gene": "Adad1 (GeneID 21744)", "reagent no.": 2, "GFP, % of control": 78.6, "viability (ATP), % of control": 35.9}
{"Gene": "Adad1 (GeneID 21744)", "reagent no.": 3, "GFP, % of control": 72.5, "viability (ATP), % of control": 72.1}
{"Gene": "Dbf4 (GeneID 27214)", "reagent no.": 1, "GFP, % of control": 80.9, "viability (ATP), % of control": 81.8}
{"Gene": "Dbf4 (GeneID 27214)", "reagent no.": 2, "GFP, % of control": 108, "viability (ATP), % of control": 98.5}
{"Gene": "Naa35 (GeneID 78689)", "reagent no.": 1, "GFP, % of control": 43.6, "viability (ATP), % of control": 63.6}
{"Gene": "Naa35 (GeneID 78689)", "reagent no.": 2, "GFP, % of control": 83, "viability (ATP), % of control": 75.2}
{"Gene": "Naa35 (GeneID 78689)", "reagent no.": 3, "GFP, % of control": 64.8, "viability (ATP), % of control": 64.3}
{"Gene": "Tigd3 (GeneID 332359)", "reagent no.": 1, "GFP, % of control": 72.2, "viability (ATP), % of control": 109}
{"Gene": "Tigd3 (GeneID 332359)", "reagent no.": 2, "GFP, % of control": 97.3, "viability (ATP), % of control": 58.1}
{"Gene": "Tigd3 (GeneID 332359)", "reagent no.": 3, "GFP, % of control": 81.1, "viability (ATP), % of control": 57.7}
{"Gene": "Egln3 (GeneID 112407)", "reagent no.": 1, "GFP, % of control": 79.1, "viability (ATP), % of control": 91.8}
{"Gene": "Egln3 (GeneID 112407)", "reagent no.": 2, "GFP, % of control": 84.6, "viability (ATP), % of control": 80.7}
{"Gene": "Egln3 (GeneID 112407)", "reagent no.": 3, "GFP, % of control": 58.6, "viability (ATP), % of control": 57.8}
{"Gene": "Nudt1 (GeneID 17766)", "reagent no.": 1, "GFP, % of control": 55, "viability (ATP), % of control": 22.2}
{"Gene": "Nudt1 (GeneID 17766)", "reagent no.": 2, "GFP, % of control": 100, "viability (ATP), % of control": 83.7}
{"Gene": "Nudt1 (GeneID 17766)", "reagent no.": 3, "GFP, % of control": "143 (active)", "viability (ATP), % of control": 85}
{"Gene": "Ptgs2 (GeneID 19225)", "reagent no.": 1, "GFP, % of control": 97.3, "viability (ATP), % of control": 59.7}
{"Gene": "Ptgs2 (GeneID 19225)", "reagent no.": 2, "GFP, % of control": 53.1, "viability (ATP), % of control": 60.1}
{"Gene": "Ptgs2 (GeneID 19225)", "reagent no.": 3, "GFP, % of control": 79.3, "viability (ATP), % of control": 82.3}
{"Gene": "Bckdk (GeneID 12041)", "reagent no.": 1, "GFP, % of control": 82.9, "viability (ATP), % of control": 76.5}
{"Gene": "Klhl1 (GeneID 93688)", "reagent no.": 1, "GFP, % of control": 29.7, "viability (ATP), % of control": 25.6}
{"Gene": "Klhl1 (GeneID 93688)", "reagent no.": 2, "GFP, % of control": 86.4, "viability (ATP), % of control": 82.2}
{"Gene": "Cramp1 (GeneID 57354)", "reagent no.": 1, "GFP, % of control": 75.4, "viability (ATP), % of control": 59}
{"Gene": "Cramp1 (GeneID 57354)", "reagent no.": 2, "GFP, % of control": 79, "viability (ATP), % of control": 109}
{"Gene": "Cramp1 (GeneID 57354)", "reagent no.": 3, "GFP, % of control": 102, "viability (ATP), % of control": 88.3}
{"Gene": "Pik3cg (GeneID 30955)", "reagent no.": 1, "GFP, % of control": 57.7, "viability (ATP), % of control": 76}
{"Gene": "Ugt2a3 (GeneID 72094)", "reagent no.": 1, "GFP, % of control": 70.5, "viability (ATP), % of control": 81.1}
{"Gene": "Ugt2a3 (GeneID 72094)", "reagent no.": 2, "GFP, % of control": 63.5, "viability (ATP), % of control": 89.6}
{"Gene": "Ugt2a3 (GeneID 72094)", "reagent no.": 3, "GFP, % of control": 53.3, "viability (ATP), % of control": 67.4}
{"Gene": "Eri1 (GeneID 67276)", "reagent no.": 1, "GFP, % of control": 118, "viability (ATP), % of control": 89}
{"Gene": "Eri1 (GeneID 67276)", "reagent no.": 2, "GFP, % of control": 110, "viability (ATP), % of control": 76.6}
{"Gene": "Eri1 (GeneID 67276)", "reagent no.": 3, "GFP, % of control": 47.8, "viability (ATP), % of control": 58.5}
{"Gene": "Trmt10c (GeneID 52575)", "reagent no.": 1, "GFP, % of control": 116, "viability (ATP), % of control": 77.9}
{"Gene": "Trmt10c (GeneID 52575)", "reagent no.": 2, "GFP, % of control": 107, "viability (ATP), % of control": 103}
{"Gene": "Trmt10c (GeneID 52575)", "reagent no.": 3, "GFP, % of control": 47.7, "viability (ATP), % of control": 54.7}
{"Gene": "Potefam1 (GeneID 67575)", "reagent no.": 1, "GFP, % of control": 67.9, "viability (ATP), % of control": 63}
{"Gene": "Potefam1 (GeneID 67575)", "reagent no.": 2, "GFP, % of control": 59.1, "viability (ATP), % of control": 65.6}
{"Gene": "Potefam1 (GeneID 67575)", "reagent no.": 3, "GFP, % of control": 46.3, "viability (ATP), % of control": 66.9}
